{"source": "paper PMC11724075", "about": "“Small-molecule-induced ERBB4 activation to treat heart failure” (Nature Communications, 2025)", "key": {"[1]": {"system": "mouse model of MI", "assay": "Mouse model of MI (LAD ligation), echocardiography", "parameters": "left-ventricular end-diastolic volume / left-ventricular end-systolic volume: unit not given here", "method": "Twelve-week-old female and male Balb/cJ (Charles River, 000651) mice were randomized into either the ctrl or MI group. Mice in the MI group underwent surgical ligation of the LAD, while mice in the ctrl group underwent a sham procedure (n = 8 female mice, n = 10 male mice). Briefly, all mice received an injection of 0.1 mg/kg buprenorphine (Produlab Pharma) before induction of anesthesia with 8% sevoflurane (Zoetis). Anesthesia was maintained with 4.5% sevoflurane and mice were intubated and ventilated. An incision of 15 mm was made on the left side of the thorax and the thoracic cavity was opened at the third intercostal space using blunt forceps. The LAD was permanently ligated with a 8/0 polypropylene monofilament sutures (Ethicon, F1894) after which the thoracic cavity and skin were closed with 6/0 polypropylene monofilament sutures (Ethicon, F1841). and 5/0 polyamide 6 sutures (Ethilon, F2412H), respectively. Mice received another dose of 0.1 mg/kg buprenorphine 6–8 h after the initial dose. Two days after surgery, cardiac ultrasound was performed to exclude mice without successful MI (i.e. displaying hypokinesia in ≥2 out of 5 segments). Mice with successful MI were randomized into 2 groups: an MI/EF-1 group (n = 9 female mice, n = 10 male mice) and an MI/Veh group (n = 8 female mice, n = 12 male mice). Seven days after MI surgery, the mice were equipped with osmotic mini-pumps containing either EF-1 (2 mg/kg/day) or Veh, as described above. Cardiac ultrasound was performed weekly. After 4 weeks of treatment, mice were euthanized, and hearts were collected.\nEchocardiography was performed using the Vevo F2-LAZRX (FUJIFILM VisualSonics) and UHF57x probe. Mice were anesthetized with 1.5% isoflurane (Alvira, BE-V512222). Parasternal long-axis B-mode images and M-mode images were obtained and analyzed using VevoLAB software (FUJIFILM VisualSonics, Version 5.7.1). For the AngII experiments, measurements were obtained through analysis of the short-axis M-mode. For the MI experiments, measurements were obtained through analysis of the parasternal long-axis B-mode, of which the area and end-volume of the left ventricular cavity in diastole and systole were determined by tracing the endocardial border. Acquisitions, measurements and analyses were performed blinded.\nSupplementary Table 2. Echocardiographic parameters. […]\nEchocardiographic parameters obtained through left ventricular trace analysis of the parasternal long-axis obtained in B-mode in female wild-type mice that underwent a sham or MI operation: mice with […]\nthe MI were treated with Veh or EF-1 (n=8 female mice in Ctrl and MI/Veh group and n=9 female mice […]\nin MI/EF-1 group). (g) Echocardiographic parameters obtained through left ventricular trace analysis of the parasternal long-axis obtained in B-mode in male wild-type mice that underwent a sham or MI […]\noperation: mice with the MI were treated with Veh or EF-1 (n=5 male mice in Ctrl and MI/EF-1 group […]\nand n=6 male mice in MI/Veh group for T0 and T3; n=10 male mice in Ctrl and MI/EF-1 group and n=12 […]\nmale mice in MI/Veh group for T2 and T4). Echocardiographic parameters were measured weekly (indicated by ‘T’). All data are presented as mean (value of individual mice) ± SD, two-tailed unpaired […]\n1 groups. Source data are provided as a Source Data file. AngII, angiotensin II; ANOVA, analysis of variance; Ctrl, control; DOX, doxorubicin; EF, ejection fraction; ERBB4, erythroblastic leukemia viral oncogene homolog 4; FS, fractional shortening; IVSd, interventricular septum thickness in diastole; IVSs, interventricular septum thickness in systole; LVIDd, left ventricular internal diameter in diastole; LVIDs, left ventricular internal diameter in systole; LVPWd, left ventricular posterior wall thickness in diastole; LVPWs, left ventricular posterior wall thickness in systole; MI, myocardial infarction; NA, non-activating pharmacophore-containing compound; SD, standard variation; Veh, vehicle."}, "[2]": {"system": "mouse model of MI", "assay": "Mouse model of MI, histology: CSA, capillaries, interstitial fibrosis, scar size", "settings": "MI experiment, female mice, MI/EF-1", "method": "Twelve-week-old female and male Balb/cJ (Charles River, 000651) mice were randomized into either the ctrl or MI group. Mice in the MI group underwent surgical ligation of the LAD, while mice in the ctrl group underwent a sham procedure (n = 8 female mice, n = 10 male mice). Briefly, all mice received an injection of 0.1 mg/kg buprenorphine (Produlab Pharma) before induction of anesthesia with 8% sevoflurane (Zoetis). Anesthesia was maintained with 4.5% sevoflurane and mice were intubated and ventilated. An incision of 15 mm was made on the left side of the thorax and the thoracic cavity was opened at the third intercostal space using blunt forceps. […]\nHearts were fixed in 4% PFA, paraffin-embedded, and cut into 5-µm sections. Images were acquired with an Olympus BX43 microscope (Olympus Stream Motion Software) or a CELENA® S Digital Imaging System and analyzed with ImageJ 2.14.0 software. […] Cardiac total fibrosis was expressed as the ratio of positively stained fibrotic area (blue) to the total area and perivascular fibrosis as the ratio of fibrotic area to vascular lumen area. Scar size was determined by measuring the scar length over the total heart area. […] Quantification was performed by a person blinded to the treatment protocol."}, "[3]": {"settings": "male mice, MI/EF-1, 2 weeks after MI"}, "[4]": {"settings": "male mice, MI/EF-1, 3 weeks after MI"}, "[5]": {"settings": "male mice, MI/EF-1, 4 weeks after MI"}}, "note": "A number of entries come with more than one value. The list is limited to them. An entry can have further records. The records of an entry differ for a reason that is not stated; some may be repeats, others may stem from another dose, organism or construct than stated."}
{"compound": "O=C(NC1CC1)C(Sc1nc2ccccc2c(=O)n1C1CCCC1)c1ccccc1", "note": "(stereo not drawn) [EF-1]", "values": [{"measurement": "left-ventricular end-systolic volume", "setting": "[1]; female mice, MI/EF-1, 0 weeks after MI", "result": "27.1502, 25.5965, 41.583, 26.8532, 31.6618, 26.4045, 33.6199"}, {"measurement": "left-ventricular end-diastolic volume", "setting": "[1]; female mice, MI/EF-1, 3 weeks after MI", "result": "104.279, 57.1046, 67.7258, 110.958, 104.249, 85.2445, 83.2871"}, {"measurement": "left-ventricular end-diastolic volume", "setting": "[1]; [3]", "result": "152.907, 157.952, 103.809, 120.971, 84.3743, 82.7782, 163.93, 127.013"}, {"measurement": "left-ventricular end-systolic volume", "setting": "[1]; [3]", "result": "120.606 and 144.154"}, {"measurement": "ejection fraction", "setting": "[1]; [4]", "result": "48.9747, 12.2218, 13.8127, 22.8853, 12.1516"}, {"measurement": "left-ventricular end-systolic volume", "setting": "[1]; [4]", "result": "128.254, 144.109, 66.4446, 116.876"}, {"measurement": "left-ventricular end-diastolic volume", "setting": "[1]; [5]", "result": "152.102, 174.774, 98.4532, 129.892"}, {"measurement": "left-ventricular end-systolic volume", "setting": "[1]; [5]", "result": "130.023, 142.752, 120.978"}, {"measurement": "cardiomyocyte cross-sectional area", "setting": "[2]", "result": "408.291, 410.876, 364.329, 394.198, 468.719, 389.529, 486.597, 400.61 µm²"}]}
